Results published in paper PMC6825352, “Ghd8 controls rice photoperiod sensitivity by forming a complex that interacts with Ghd7”.
For some of these results: Negatives hold for the conditions tested. For some of these results: At least one verdict rests on a figure or table, not on a statement of the authors. For some of these results: The exact form of at least one protein or probe is not confirmed. For some of these results: Weaker means in comparison with the reference protein, sequence or condition of that experiment. For some of these results: Protein sequences can lack the tags named with them.

Experiments:
Experiment in all cases: EMSA
[1] = system: HD1 (MBP-HD1) + GHD8 (His-GHD8, NF-YB) + OsHAP5b (His-HAP5b, NF-YC); details: negative control probe lacking CCAAT; 5 mM Tris pH 7.5, 25 mM KCl, 0.5 mM DTT, 5 mM MgCl2, 2.5% glycerol, 0.05% NP-40, 50 ng/uL poly(dI-dC), room temperature 20 min, 5% polyacrylamide gel; recombinant protein; label: biotin
[2] = molecular target: T1, HD1 (MBP-HD1) (Oryza sativa (rice)) (UniProt Q9FDX8); details: HD1 alone, competed by 25x/100x unlabeled F1; 5 mM Tris pH 7.5, 25 mM KCl, 0.5 mM DTT, 5 mM MgCl2, 2.5% glycerol, 0.05% NP-40, 50 ng/uL poly(dI-dC), room temperature 20 min, 5% polyacrylamide gel; recombinant protein; protein details: MBP (pMAL-c2X, text says MBP 'at the down-stream'); label: 3'-biotin
T1 sequence (looked up, limits assumed): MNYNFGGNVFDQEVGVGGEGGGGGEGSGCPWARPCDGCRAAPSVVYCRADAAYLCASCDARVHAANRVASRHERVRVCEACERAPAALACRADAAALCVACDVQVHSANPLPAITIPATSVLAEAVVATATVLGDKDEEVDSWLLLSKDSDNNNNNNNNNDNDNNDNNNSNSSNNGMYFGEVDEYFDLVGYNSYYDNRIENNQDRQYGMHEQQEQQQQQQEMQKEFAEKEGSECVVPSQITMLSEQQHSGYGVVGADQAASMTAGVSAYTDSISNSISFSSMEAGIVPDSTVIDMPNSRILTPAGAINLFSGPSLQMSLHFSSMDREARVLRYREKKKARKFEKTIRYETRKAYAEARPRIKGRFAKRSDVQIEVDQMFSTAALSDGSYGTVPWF

MBP = MBP (UniProt P0AEX9); details: negative control; 5 mM Tris pH 7.5, 25 mM KCl, 0.5 mM DTT, 5 mM MgCl2, 2.5% glycerol, 0.05% NP-40, 50 ng/uL poly(dI-dC), room temperature 20 min, 5% polyacrylamide gel; recombinant protein; label: 3'-biotin

Row | Sequence | binding result [1] | binding result [2] | binding result (MBP)
1 | ATCTGACAGCTGACGGGCAGCTACATGAGGAGTCG (double strand) [MF2] | no binding |  | 
2 | ATCTGGTTGCAATGGGGATGGCCAATGAGGAGTCG (double strand) [F1] |  | binds more weakly | no binding
3 | ATCTGGTTGTAATGGGGATGGTACATGAGGAGTCG (double strand) [MF1] | no binding |  | 
